Among the data in publication PMC7819943, “Rice protein-binding microarrays: a tool to detect cis-acting elements near promoter regions in rice” are binding signal values, retold here.

Protein sequences, listed by entry. Tags and fused reporters are not part of them.
UniProt Q0JBA9, entry or part of it: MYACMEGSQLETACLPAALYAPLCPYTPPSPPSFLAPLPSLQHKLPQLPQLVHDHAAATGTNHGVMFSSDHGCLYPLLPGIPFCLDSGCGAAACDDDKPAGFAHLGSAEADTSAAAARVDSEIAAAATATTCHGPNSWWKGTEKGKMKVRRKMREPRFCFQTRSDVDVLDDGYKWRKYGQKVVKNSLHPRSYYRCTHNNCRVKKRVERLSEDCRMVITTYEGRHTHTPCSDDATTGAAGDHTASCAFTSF

The list shows a part of the results.

This assay deals with OsWRKY34 (Oryza sativa, UniProt Q0JBA9 1-250). In words: protein-binding microarray (RPBM); PBS, 2% BSA, 51.3 ng/ul salmon testes DNA, 50 uM zinc acetate, 200 nM TF, 25 C, 1 h; high values mean tight binding. As to conditions: protein: recombinant; tags: N-terminal polyhistidine and DsRed monomer fusion (pET32a); label: CyDye5-dUTP incorporated in the synthesized complementary strand; 3' TTTTT single-stranded linker to array surface; dsDNA, one strand shown. The method in brief:
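Polyhistidine-tagged DsRed fusions of transcription factors, joined at the N-terminus, were expressed in E. coli BL21-CodonPlus and isolated on Ni–NTA. They were incubated at 200 nM for 1 h at 25 °C on a custom Agilent array, double-stranded and BSA-blocked, in PBS with 2% BSA, salmon testes DNA and 50 µM zinc acetate. The binding signal is per-feature fluorescence intensity (arbitrary units) read on an Axon 4000B scanner after washing.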
With “GGCGCGCGCACGCCGGCCAATCCTACCACATCCCCGGCCTCGGAGTCACCTAGTGCAG”, the binding signal was 8850 fluorescence intensity (a.u.). “TTGTTGCTTCGCTTGGCTTTGCTACCGCTTCGTACCTTCCCGGAGTCACCTAGTGCAG”: the binding signal is 9700 fluorescence intensity (a.u.). The figure for “CCAGCGACCTCCTCCCCGCGCACGTGCCGCAGCCGGCTATCGGAGTCACCTAGTGCAG” is 8170 fluorescence intensity (a.u.).

For “TTGTGCTTAGTTCGGATGGGATTGTTCTGATATTGTTCCACGGAGTCACCTAGTGCAG”, the binding signal is 8790 fluorescence intensity (a.u.). “TGGAGACTAGGGTGTGTGCCTCCGGTTTTTATTTTTTTTCCGGAGTCACCTAGTGCAG”: the binding signal was 11100 fluorescence intensity (a.u.). The figure for “AGGTCGCCCATCCAGCCTCTGCGTTTAGTTGTTTGACCAACGGAGTCACCTAGTGCAG” is 8830 fluorescence intensity (a.u.); for “CTCCTCCCTACCCATCTCCTCCGTTCCGCGCATCGCTACACGGAGTCACCTAGTGCAG” it is 8310 fluorescence intensity (a.u.). Turning to “CGCACACATCTTCCAAATCGAATGCTGGTAGGATCTGAGACGGAGTCACCTAGTGCAG”, the binding signal was 8860 fluorescence intensity (a.u.).

On to “GTACATGCATTATCCATATCTCTAAATTTAGCAATCACTTCGGAGTCACCTAGTGCAG”, for which the binding signal is 9480 fluorescence intensity (a.u.). In the case of “ACCATTTAACTCTCCCTTCGGCTGCAGCTGTGCATATGGACGGAGTCACCTAGTGCAG”, the binding signal is 10200 fluorescence intensity (a.u.). Consider “GTCGTCGCTCCGTTCCACCGTTGGTTCGCAACCGAACCAACGGAGTCACCTAGTGCAG”, for which the binding signal is 8600 fluorescence intensity (a.u.).

“AGGCAGCGTCGTGGTGGTGACTCCGTGCTGACTCGACCGTCGGAGTCACCTAGTGCAG”: the binding signal is 8110 fluorescence intensity (a.u.).

Take “GTTGCTTTTCACCTTTTCTTTTTACTCAGGCTCACCCAGACGGAGTCACCTAGTGCAG”: the binding signal is 8100 fluorescence intensity (a.u.).

For “GAGCCACTGATGCACGTGAGTTTTCCATGTTTGGTGATTTCGGAGTCACCTAGTGCAG”, the binding signal is 8070 fluorescence intensity (a.u.). Under “GCACCACATCCTGCTCCTCGCCGATCGTCCTTGTAGGCTACGGAGTCACCTAGTGCAG” stands 8340 fluorescence intensity (a.u.). Consider “ATCACTATTATTATAGTCATTGTTATGTATGTTTCATCTTCGGAGTCACCTAGTGCAG”, for which the binding signal is 9990 fluorescence intensity (a.u.). Take “GGATCCACCCGCTTCTCTGACCGCGCGCCACGTTCGCTGACGGAGTCACCTAGTGCAG”: the binding signal was 9270 fluorescence intensity (a.u.). The figure for “TCCAGCGGTGGTTGAACATGTCTTTTGTTGTGAATATTTACGGAGTCACCTAGTGCAG” is 9290 fluorescence intensity (a.u.); for “GCCTGTTCACTTTGATGTCATTTTCAACCTTATCAAATTTCGGAGTCACCTAGTGCAG” it is 13100 fluorescence intensity (a.u.). Under “TACTTGTCTCCTGAGATTTTCCCCGTCTTTCCACTGTTCTCGGAGTCACCTAGTGCAG” stands 8560 fluorescence intensity (a.u.); under “GGTGGCGCCTACGTGGCTAGTTTGACTTGGTCTTCATCTACGGAGTCACCTAGTGCAG”, 9460 fluorescence intensity (a.u.).

“CGTTTCTTTCTCGGCCCATCCAACACGCGCTCTTGCTTGACGGAGTCACCTAGTGCAG”: the binding signal is 12200 fluorescence intensity (a.u.). The figure for “CATTCTTTCATTCCTCACTCATCACTCAACGGTCCAGATTCGGAGTCACCTAGTGCAG” is 8530 fluorescence intensity (a.u.).

Turning to “GGCCGCGGCGGTGCGACGAAGAGCGGCGTCGGACAAGGGCCGGAGTCACCTAGTGCAG”, the binding signal is 35900 fluorescence intensity (a.u.). Under “GACCATCTCGCGTCGCTCCTCCGGCCATCTCTTCAGCTCCCGGAGTCACCTAGTGCAG” stands 8630 fluorescence intensity (a.u.); under “AGGGTGGGCGTGATGGAGTTGGGTCGGCCGGGGTGTCCGGCGGAGTCACCTAGTGCAG”, 11700 fluorescence intensity (a.u.). Turning to “TTTGTCGCGTGATTTTTTTTCCTTCGTATTTGACGTTTTTCGGAGTCACCTAGTGCAG”, the binding signal is 10100 fluorescence intensity (a.u.).

On to “AGACTCTTCTTCCCATATTCCTTAATTTTTAATTTTATTTCGGAGTCACCTAGTGCAG”, for which the binding signal is 9190 fluorescence intensity (a.u.).

As to “TTACTTTTCCCACCTATCTTCACTACTTATCCAATCACAACGGAGTCACCTAGTGCAG”, the binding signal was 9810 fluorescence intensity (a.u.).

For “CCTCATGTACCGCACCTCCTCATCCTGTAATTTCGCGCGCCGGAGTCACCTAGTGCAG”, the binding signal is 10100 fluorescence intensity (a.u.). For the sequence “TTGTGAGGCGATTTCCTAGTATTCAGTGTAGTAATGTTACCGGAGTCACCTAGTGCAG”, the binding signal was 8090 fluorescence intensity (a.u.).

Regarding “ACAATATTTTGACTGTTTCGTTAATTTTTATGCCGTTTAGCGGAGTCACCTAGTGCAG”, the binding signal was 8470 fluorescence intensity (a.u.). As to “GTGTGGTGTTGTGGGAGCATGCAGCATGCTACCACCTATTCGGAGTCACCTAGTGCAG”, the binding signal was 8630 fluorescence intensity (a.u.). For “TTTATCTAAATGCCCGGATTGCTCTTTCTCTTTCCTTCTTCGGAGTCACCTAGTGCAG”, the binding signal was 11800 fluorescence intensity (a.u.). Consider “TGATGTCCCATACTTTTTTTTATTATAGGTTTGTTTATTTCGGAGTCACCTAGTGCAG”, for which the binding signal was 8250 fluorescence intensity (a.u.).

With “TCCACCTCACTCTCACTGATCTTGTCTCTCTTTCTCTTTCCGGAGTCACCTAGTGCAG”, the binding signal is 12400 fluorescence intensity (a.u.).

Take “CATTGCCCTGCTTAGTTTCTTTCAACATTTCAGTCTGTAGCGGAGTCACCTAGTGCAG”: the binding signal is 9370 fluorescence intensity (a.u.).

For “ACGGAGGGTGTGCTCTGCTTATTAGTTATTTCTTCAACGACGGAGTCACCTAGTGCAG”, the binding signal was 9180 fluorescence intensity (a.u.).

On to “CAAATTATGTAAAATGTTCTGTATTTTGTGCCAATTGACTCGGAGTCACCTAGTGCAG”, for which the binding signal was 8080 fluorescence intensity (a.u.). As to “AGCCCGATAATCTCCCTATTCTTTCCATTACCCTCTCCTACGGAGTCACCTAGTGCAG”, the binding signal was 8880 fluorescence intensity (a.u.). Turning to “AGTTTTTAAGAGCGTCTTTCAGCTGTGACATGGTTTTTTTCGGAGTCACCTAGTGCAG”, the binding signal is 8400 fluorescence intensity (a.u.). In the case of “CCACCACCACCGCTGCTTCCAAGTTCCAACCGCTCCCTCTCGGAGTCACCTAGTGCAG”, the binding signal is 9210 fluorescence intensity (a.u.).
